No constants are given. Whether binding was seen depends on the method and setting. For part of these data: In cells and extracts the contact can be indirect. Some entries that bind do so weakly or less than the wild type. For part of these data: Sequences can lack the tags named with a protein. Values belong to the molecule of their own block, whether it stands above or below them.
Experiments:
[1] = biological target: T1, ORP4L/pVc-C1 (ORP4L fused to a Venus fragment) (UniProt Q969R2); test: split reporter; BiFC with Venus fragments in transfected Jurkat T-cells; read 24 or 36 h after transfection, with or without anti-CD3 (10 μg/ml, 5 min); confocal microscopy
T1 sequence: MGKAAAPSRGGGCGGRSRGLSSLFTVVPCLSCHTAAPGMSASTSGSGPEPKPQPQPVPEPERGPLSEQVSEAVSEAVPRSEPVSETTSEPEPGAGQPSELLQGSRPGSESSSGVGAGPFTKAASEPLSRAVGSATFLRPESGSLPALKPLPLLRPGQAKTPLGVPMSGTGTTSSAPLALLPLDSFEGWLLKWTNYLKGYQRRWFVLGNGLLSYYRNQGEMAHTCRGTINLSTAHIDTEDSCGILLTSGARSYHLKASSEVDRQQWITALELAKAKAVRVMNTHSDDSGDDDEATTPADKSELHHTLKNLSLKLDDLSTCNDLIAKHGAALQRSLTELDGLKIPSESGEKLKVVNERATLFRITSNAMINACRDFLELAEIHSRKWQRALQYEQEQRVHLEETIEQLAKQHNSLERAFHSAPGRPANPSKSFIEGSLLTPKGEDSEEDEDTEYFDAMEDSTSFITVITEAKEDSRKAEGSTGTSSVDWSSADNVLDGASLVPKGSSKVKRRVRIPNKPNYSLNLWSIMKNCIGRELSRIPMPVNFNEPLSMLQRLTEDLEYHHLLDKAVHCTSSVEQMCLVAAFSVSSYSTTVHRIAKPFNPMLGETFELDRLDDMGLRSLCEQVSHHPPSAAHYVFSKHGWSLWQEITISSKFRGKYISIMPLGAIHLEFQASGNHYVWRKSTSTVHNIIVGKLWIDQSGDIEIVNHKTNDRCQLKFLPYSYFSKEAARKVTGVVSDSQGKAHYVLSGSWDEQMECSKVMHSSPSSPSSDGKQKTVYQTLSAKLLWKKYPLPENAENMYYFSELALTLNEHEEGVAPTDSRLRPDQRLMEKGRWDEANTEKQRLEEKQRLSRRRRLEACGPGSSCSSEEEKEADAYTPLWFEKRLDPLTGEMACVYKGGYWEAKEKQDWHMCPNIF

The chains behind the UniProt entries cited, without tags or fusion partners. Where a name states a change or a piece, a line headed by the entry shows the natural chain unless it says otherwise.
UniProt Q01968: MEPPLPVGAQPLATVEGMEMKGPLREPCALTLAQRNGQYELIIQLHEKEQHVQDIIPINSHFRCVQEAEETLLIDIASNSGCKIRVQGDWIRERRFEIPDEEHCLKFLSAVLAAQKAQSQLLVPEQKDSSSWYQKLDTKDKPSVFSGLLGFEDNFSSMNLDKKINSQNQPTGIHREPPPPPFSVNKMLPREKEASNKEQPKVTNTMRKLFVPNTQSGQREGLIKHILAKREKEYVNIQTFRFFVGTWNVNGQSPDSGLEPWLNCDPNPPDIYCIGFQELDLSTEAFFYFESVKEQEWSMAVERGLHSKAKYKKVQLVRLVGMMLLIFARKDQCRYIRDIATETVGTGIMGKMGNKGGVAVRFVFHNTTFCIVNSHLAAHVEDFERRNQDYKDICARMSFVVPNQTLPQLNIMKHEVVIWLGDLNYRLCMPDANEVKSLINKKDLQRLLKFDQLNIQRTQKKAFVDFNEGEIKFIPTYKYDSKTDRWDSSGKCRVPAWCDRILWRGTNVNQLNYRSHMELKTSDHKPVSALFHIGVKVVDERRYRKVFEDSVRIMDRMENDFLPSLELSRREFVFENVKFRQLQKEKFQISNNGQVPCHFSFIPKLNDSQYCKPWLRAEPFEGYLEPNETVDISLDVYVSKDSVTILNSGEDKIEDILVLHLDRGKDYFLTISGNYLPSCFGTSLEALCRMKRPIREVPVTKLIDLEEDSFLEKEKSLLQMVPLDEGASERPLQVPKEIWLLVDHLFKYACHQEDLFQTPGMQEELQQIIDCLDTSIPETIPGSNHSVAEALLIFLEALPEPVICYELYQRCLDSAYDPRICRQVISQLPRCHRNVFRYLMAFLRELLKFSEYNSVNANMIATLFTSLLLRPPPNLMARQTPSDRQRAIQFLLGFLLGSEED

[2] = biological target: T2, GST-ORP4L (OSBP-related protein 4L, wildtype) (UniProt Q969R2); test: pull-down; GST or GST fusions from E. coli lysate held on glutathione beads; Jurkat T-cell lysate added, 4 °C overnight; three washes with lysis buffer; Western blot with anti-OCRL or anti-ORP4L; only the target purified
T2 sequence: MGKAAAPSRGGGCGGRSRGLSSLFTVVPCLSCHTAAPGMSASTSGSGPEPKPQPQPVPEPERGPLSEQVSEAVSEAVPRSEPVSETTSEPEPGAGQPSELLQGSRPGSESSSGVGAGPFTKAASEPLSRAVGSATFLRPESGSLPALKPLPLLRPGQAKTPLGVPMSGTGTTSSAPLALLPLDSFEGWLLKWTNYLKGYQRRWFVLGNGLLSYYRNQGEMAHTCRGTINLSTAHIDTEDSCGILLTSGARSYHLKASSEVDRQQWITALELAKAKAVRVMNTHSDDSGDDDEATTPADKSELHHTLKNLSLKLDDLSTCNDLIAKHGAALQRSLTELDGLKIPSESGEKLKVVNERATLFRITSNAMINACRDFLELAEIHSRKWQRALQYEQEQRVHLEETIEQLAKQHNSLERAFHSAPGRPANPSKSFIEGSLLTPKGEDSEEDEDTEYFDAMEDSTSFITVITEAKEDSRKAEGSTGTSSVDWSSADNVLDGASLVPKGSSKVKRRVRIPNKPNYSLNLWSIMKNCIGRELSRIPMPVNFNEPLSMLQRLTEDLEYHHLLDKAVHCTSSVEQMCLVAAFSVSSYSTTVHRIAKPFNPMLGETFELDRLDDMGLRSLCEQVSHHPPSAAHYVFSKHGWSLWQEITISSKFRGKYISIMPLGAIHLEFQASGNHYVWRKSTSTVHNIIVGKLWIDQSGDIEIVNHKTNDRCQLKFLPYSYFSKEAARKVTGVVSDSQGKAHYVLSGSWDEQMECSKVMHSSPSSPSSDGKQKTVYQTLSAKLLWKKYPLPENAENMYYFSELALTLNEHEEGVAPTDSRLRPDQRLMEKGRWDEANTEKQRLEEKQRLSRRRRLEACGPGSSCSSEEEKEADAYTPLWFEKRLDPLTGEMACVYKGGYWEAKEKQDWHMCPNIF

[3] = biological target: T3, full-length ORP4L in bait vector pGBKT7 (UniProt Q969R2); test: two-hybrid; bait in pGBKT7, prey in pGADT7, yeast strain AH109; growth on SD/4- and X-gal assay, 30 °C
T3 sequence: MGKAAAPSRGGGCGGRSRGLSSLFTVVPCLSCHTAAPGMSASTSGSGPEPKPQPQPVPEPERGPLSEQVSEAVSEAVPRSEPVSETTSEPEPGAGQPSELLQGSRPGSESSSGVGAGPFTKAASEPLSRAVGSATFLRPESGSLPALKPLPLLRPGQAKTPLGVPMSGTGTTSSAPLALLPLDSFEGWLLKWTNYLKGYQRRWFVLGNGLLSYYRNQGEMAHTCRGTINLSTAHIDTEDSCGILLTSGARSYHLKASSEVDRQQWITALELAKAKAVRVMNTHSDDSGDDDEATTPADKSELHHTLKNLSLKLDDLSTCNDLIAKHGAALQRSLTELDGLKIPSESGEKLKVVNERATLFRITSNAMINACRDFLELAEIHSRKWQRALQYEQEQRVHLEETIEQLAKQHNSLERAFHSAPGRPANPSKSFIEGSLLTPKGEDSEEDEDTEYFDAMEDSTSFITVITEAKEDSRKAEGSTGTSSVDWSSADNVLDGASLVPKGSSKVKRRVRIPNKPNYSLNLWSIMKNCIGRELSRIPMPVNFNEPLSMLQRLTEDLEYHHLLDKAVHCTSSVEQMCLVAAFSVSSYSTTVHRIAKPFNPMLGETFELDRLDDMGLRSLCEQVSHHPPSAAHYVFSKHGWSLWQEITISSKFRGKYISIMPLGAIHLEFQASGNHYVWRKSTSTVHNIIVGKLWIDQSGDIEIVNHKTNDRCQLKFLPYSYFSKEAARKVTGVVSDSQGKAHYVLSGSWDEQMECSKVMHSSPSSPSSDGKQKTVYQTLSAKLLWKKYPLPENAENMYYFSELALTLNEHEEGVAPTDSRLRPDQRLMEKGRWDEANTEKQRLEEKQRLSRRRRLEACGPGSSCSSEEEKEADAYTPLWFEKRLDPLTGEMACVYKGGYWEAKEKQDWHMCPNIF

[4] = biological target: endogenous OCRL of Jurkat T-cells (human (endogenous in Jurkat)) (UniProt Q01968); test: co-IP; endogenous proteins in Jurkat T-cell lysate (50 mM Tris-Cl, 150 mM NaCl, 0.5 mM MgCl2, 10% glycerol, 0.5% Triton X-100, pH 8.0); precipitation with 5 μg OCRL antibody or control IgG, Protein G-agarose; blot for ORP4L and OCRL
[5] = biological target: GST-OCRL (oculocerebrorenal syndrome of Lowe 1, wildtype) (human) (UniProt Q01968); test: pull-down; GST or GST fusions from E. coli lysate held on glutathione beads; Jurkat T-cell lysate added, 4 °C overnight; three washes with lysis buffer; Western blot with anti-OCRL or anti-ORP4L; only the target purified
[6] = biological target: full-length OCRL1 in bait vector pGBKT7 (human) (UniProt Q01968); test: two-hybrid; bait in pGBKT7, prey in pGADT7, yeast strain AH109; growth on SD/4- and X-gal assay, 30 °C

Molecule: OCRL1/pVn-N1 (OCRL fused to a Venus fragment) (from UniProt Q01968 1-901)
- binding [1]: binds

Molecule: OCRL segment containing aa 564 to 901 in prey vector pGADT7 (from UniProt Q01968 564-901) (domain or fragment)
- binding [3]: binds

Molecule: endogenous OCRL of Jurkat T-cells (from UniProt Q01968 1-901)
- binding [2]: binds

Molecule: full-length OCRL1 in prey vector pGADT7 (from UniProt Q01968 1-901)
- binding [3]: binds

B1: endogenous ORP4L of Jurkat T-cells (protein, UniProt Q969R2 1-916)
chain: MGKAAAPSRGGGCGGRSRGLSSLFTVVPCLSCHTAAPGMSASTSGSGPEPKPQPQPVPEPERGPLSEQVSEAVSEAVPRSEPVSETTSEPEPGAGQPSELLQGSRPGSESSSGVGAGPFTKAASEPLSRAVGSATFLRPESGSLPALKPLPLLRPGQAKTPLGVPMSGTGTTSSAPLALLPLDSFEGWLLKWTNYLKGYQRRWFVLGNGLLSYYRNQGEMAHTCRGTINLSTAHIDTEDSCGILLTSGARSYHLKASSEVDRQQWITALELAKAKAVRVMNTHSDDSGDDDEATTPADKSELHHTLKNLSLKLDDLSTCNDLIAKHGAALQRSLTELDGLKIPSESGEKLKVVNERATLFRITSNAMINACRDFLELAEIHSRKWQRALQYEQEQRVHLEETIEQLAKQHNSLERAFHSAPGRPANPSKSFIEGSLLTPKGEDSEEDEDTEYFDAMEDSTSFITVITEAKEDSRKAEGSTGTSSVDWSSADNVLDGASLVPKGSSKVKRRVRIPNKPNYSLNLWSIMKNCIGRELSRIPMPVNFNEPLSMLQRLTEDLEYHHLLDKAVHCTSSVEQMCLVAAFSVSSYSTTVHRIAKPFNPMLGETFELDRLDDMGLRSLCEQVSHHPPSAAHYVFSKHGWSLWQEITISSKFRGKYISIMPLGAIHLEFQASGNHYVWRKSTSTVHNIIVGKLWIDQSGDIEIVNHKTNDRCQLKFLPYSYFSKEAARKVTGVVSDSQGKAHYVLSGSWDEQMECSKVMHSSPSSPSSDGKQKTVYQTLSAKLLWKKYPLPENAENMYYFSELALTLNEHEEGVAPTDSRLRPDQRLMEKGRWDEANTEKQRLEEKQRLSRRRRLEACGPGSSCSSEEEKEADAYTPLWFEKRLDPLTGEMACVYKGGYWEAKEKQDWHMCPNIF
- binding [4]: binds
- binding [5]: binds

Now from value to molecule:

- binding [2]: binds
Molecule: OCRL protein in lysate of OCRL1-overexpressing Jurkat T-cells (from UniProt Q01968 1-901)

- binding [6]: binds
B2: full-length ORP4L in prey vector pGADT7 (protein, UniProt Q969R2 1-916)
chain: MGKAAAPSRGGGCGGRSRGLSSLFTVVPCLSCHTAAPGMSASTSGSGPEPKPQPQPVPEPERGPLSEQVSEAVSEAVPRSEPVSETTSEPEPGAGQPSELLQGSRPGSESSSGVGAGPFTKAASEPLSRAVGSATFLRPESGSLPALKPLPLLRPGQAKTPLGVPMSGTGTTSSAPLALLPLDSFEGWLLKWTNYLKGYQRRWFVLGNGLLSYYRNQGEMAHTCRGTINLSTAHIDTEDSCGILLTSGARSYHLKASSEVDRQQWITALELAKAKAVRVMNTHSDDSGDDDEATTPADKSELHHTLKNLSLKLDDLSTCNDLIAKHGAALQRSLTELDGLKIPSESGEKLKVVNERATLFRITSNAMINACRDFLELAEIHSRKWQRALQYEQEQRVHLEETIEQLAKQHNSLERAFHSAPGRPANPSKSFIEGSLLTPKGEDSEEDEDTEYFDAMEDSTSFITVITEAKEDSRKAEGSTGTSSVDWSSADNVLDGASLVPKGSSKVKRRVRIPNKPNYSLNLWSIMKNCIGRELSRIPMPVNFNEPLSMLQRLTEDLEYHHLLDKAVHCTSSVEQMCLVAAFSVSSYSTTVHRIAKPFNPMLGETFELDRLDDMGLRSLCEQVSHHPPSAAHYVFSKHGWSLWQEITISSKFRGKYISIMPLGAIHLEFQASGNHYVWRKSTSTVHNIIVGKLWIDQSGDIEIVNHKTNDRCQLKFLPYSYFSKEAARKVTGVVSDSQGKAHYVLSGSWDEQMECSKVMHSSPSSPSSDGKQKTVYQTLSAKLLWKKYPLPENAENMYYFSELALTLNEHEEGVAPTDSRLRPDQRLMEKGRWDEANTEKQRLEEKQRLSRRRRLEACGPGSSCSSEEEKEADAYTPLWFEKRLDPLTGEMACVYKGGYWEAKEKQDWHMCPNIF

- binding [6]: binds
B3: ORP4L segment containing aa 391 to 455 in prey vector pGADT7 (domain or fragment, UniProt Q969R2 391-455)
chain: YEQEQRVHLEETIEQLAKQHNSLERAFHSAPGRPANPSKSFIEGSLLTPKGEDSEEDEDTEYFDA

Reference: article PMC10279916
